Source: patent US8927559B2, “Quinazolinone-type compounds as CRTH2 antagonists” (Merck Sharp & Dohme Corp., priority 2010, dated 2015)
Some of these results come from one statement about several compounds together.

Molecular target: T1, CRTH2 receptor (hCRTH2) (Homo sapiens, UniProt Q9Y5Y4)
T1 construct: expressed in transfected cells; host or cells: HEK cells (HEK-hCRTH2 cell line), membranes
T1 sequence (Q9Y5Y4 1-395): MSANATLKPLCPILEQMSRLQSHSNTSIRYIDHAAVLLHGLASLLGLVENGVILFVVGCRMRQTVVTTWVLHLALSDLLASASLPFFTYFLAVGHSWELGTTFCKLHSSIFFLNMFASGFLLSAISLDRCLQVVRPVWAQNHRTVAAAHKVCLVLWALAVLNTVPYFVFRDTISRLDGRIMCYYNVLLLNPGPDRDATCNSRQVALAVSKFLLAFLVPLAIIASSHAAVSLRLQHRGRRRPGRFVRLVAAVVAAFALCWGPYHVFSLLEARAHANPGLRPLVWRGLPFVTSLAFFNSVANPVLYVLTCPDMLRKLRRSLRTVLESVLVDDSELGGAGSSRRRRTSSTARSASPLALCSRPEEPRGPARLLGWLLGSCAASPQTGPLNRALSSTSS
Assay: Radioligand binding assay ([3H]PGD2 competition, membranes of HEK-hCRTH2 cell line)
Settings: 3.0 nM [3H]PGD2, HEK-hCRTH2 membranes, 60 min, room temperature
Method: Competing ligands were diluted in dimethylsulfoxide (Me2SO) that was kept constant at 1% (v/v) of the final incubation volume. The reaction was initiated by the addition of 8-20 μg of membrane protein prepared from a HEK-hCRTH2 cell line. Total and non-specific binding were determined in the absence and the presence of […] PGD2, respectively. […] The reaction was routinely conducted for 60 min at room temperature and terminated by rapid filtration through prewetted (0.3% polyethyleneimine) 96-well printed filtermate (Wallac) using a Tomtec harvester. After washing with cold buffer, the filter was dried for 2 minutes in microwave, and Meltilex Scintillator sheet (Wallac) was melted on for 2 min.

O=C(O)CCCCc1nc2cc(-c3cn(C4CCc5ccccc5NC4=O)nn3)ccc2c(=O)n1-c1ccc(F)cc1 (stereo not shown) [Example 17B]
Ki: ≤ 10 nM
